Data published in patent US20060154871A1, “Peptides” (ReGen Therapeutics PIc, priority 1999, published 2006).

Assay: Level of peptides in sheep colostrum post parturition, measured by antigen-antibody reaction with the Example 3 antibodies
Conditions: for recognition of the amino acid sequence by the antibodies: in sheep colostrum; for 24 Hour Titre: sheep colostrum collected 24 hours post parturition; for 48 Hour Titre: sheep colostrum collected 48 hours post parturition; for 72 Hour Titre: sheep colostrum collected 72 hours post parturition
Protocol: In order to establish that the peptides corresponding to the synthetic peptide antigens exist in Colostrinin we carried out tests to determine whether certain of the antibodies produced a reaction in Colostrinin itself.
We studied the rate at which the peptides A-4, B-7, B-8 and B-9 disappeared from colostrum produced in sheep. The colostrum was collected from the mother's milk at 24 hours, 48 hours and 72 hours post parturition, and the level of the peptides was measured. The peptide level was measured by means of an antigen-antibody reaction, using the antibodies produced by the method of Example 3.

Question: With “LFFFLPVVNVLP [Peptide B-8, Colostrinin peptide (possibly) having β-casein homologue precursor]” as the substance, how does the “recognition of the amino acid sequence by the antibodies” value read?
Answer: recognised

Question: What about the “24 Hour Titre” value of the same substance?
Answer: 12800

Question: What about the “48 Hour Titre” value of the same substance?
Answer: 3200

Question: What about the “72 Hour Titre” value of the same substance?
Answer: 3200

Question: With “DLEMPVLPVEPFPFV [Peptide B-7, Colostrinin peptide (possibly) having β-casein homologue precursor]” as the substance, how does the “recognition of the amino acid sequence by the antibodies” value read?
Answer: recognised

Question: What about the “24 Hour Titre” value of the same substance?
Answer: 12800

Question: And the “48 Hour Titre” value?
Answer: 6400

Question: What about the “72 Hour Titre” value of the same substance?
Answer: 3200

Question: What does the source list for “LKPFPKLKVEVFPFP [Peptide A-4, Colostrinin peptide of unknown precursor]”?
Answer: recognition of the amino acid sequence by the antibodies: recognised; 24 Hour Titre: 12800; 48 Hour Titre: 6400; 72 Hour Titre: 3200

Question: Which results are given for “MQPPPLP [Peptide B-9, Colostrinin peptide (possibly) having β-casein homologue precursor]”?
Answer: recognition of the amino acid sequence by the antibodies: recognised; 24 Hour Titre: 12800; 48 Hour Titre: 12800; 72 Hour Titre: 3200
